Measurements from patent publication US20230150909A1, “PHENYLACETIC ACID DERIVATIVE, USE THEREFOR, AND PRODUCTION INTERMEDIATE THEREOF” (SUMITOMO CHEMICAL COMPANY, LIMITED, priority 2020, published 2023).
Some of these results come from one statement about several compounds together.

Columns and labels:
[1] = system: cotton aphids (Aphis gossypii); assay: Tests against cotton aphids on cucumber seedling; type: in vivo; conditions: 500 ppm, 10 mL/seedling sprayed 1 day after release; counted after 5 days
[2] = system: common red spider mites (Tetranychus urticae); assay: Tests against common red spider mite on kidney bean; type: in vivo; conditions: 500 ppm, 10 mL/seedling sprayed 1 day after release of adult females; counted after 13 days

CO/C=C(/C(=O)OC)c1cc(C(C)=NOCC2CCC2)ccc1C [Compound 9-1]
controlling value [1]: ≥ 90% | controlling value [2]: ≥ 90%
